Laboratory results as given in patent US20200263231A1, “Fluorogenic dyes for high sensitivity DNA detection” (LIFE TECHNOLOGIES CORPORATION, priority 2016, published 2020).
Some entries share one result that the patent states for a list of compounds. At least one structure is not confirmed: it was looked up by name or label, or the drawing left a doubt.

System: calf thymus DNA
Test: Fluorescence emission and enhancement of compounds bound to calf thymus DNA
Format: binding
Method: Compounds 1-65 were prepared and their fluorescence absorption and emission characteristics were measured. Intrinsic fluorescence of the compounds only (without DNA) was negligible. Emission spectra for the compounds bound to dsDNA were obtained by incubating 0.8 μM compound with 500 ng/ml calf thymus DNA in TE buffer (10 mM Tris-HCl, pH 7.5, 1 mM EDTA) in a final volume of 3 ml. Measurements were made using PerkinElmer LS 55 (F-11) Fluorescence spectrometer. Samples were excited at 488 nm and fluorescence emission was measured with emission slit widths of 2.5 nm. Absorption maxima were determined according to standard techniques.
Fluorescence enhancement measurements of the compounds were obtained by incubating 0.8 μM compound with 500 ng/ml calf thymus DNA with compounds at a final concentration of 0.8 μM in TE buffer. Compound 1 was used as an internal standard to control for variability (e.g., in excitation light intensity). The area-under-curve of fluorescence emission spectra from 500 nm to 715 nm was calculated, and compared to that of compound 1, which was defined as having 1000-fold fluorescence enhancement relative to fluorescence of the compound alone.

Structure (SMILES) | Intrinsic fluorescence of the compounds only (without DNA)
CCN(CCC[N+](C)(C)Cc1cccc(OC)c1)C1=CC(=Cc2sc3ccccc3[n+]2C)c2ccc(OC)cc2N1c1ccccc1.[Br-].[I-] [Compound 54] | negligible
CN(CCC[N+](C)(C)CCO)C1=C/C(=C/c2sc3ccccc3[n+]2C)c2ccccc2N1c1ccccc1.[I-].[I-] [Compound 25] | negligible
CCN(CC[N+](C)(C)CCO)C1=C/C(=C\c2sc3ccccc3[n+]2C)c2ccc(OC)cc2N1c1ccccc1.[I-].[I-] [Compound 59] | negligible
CCN(CCC[N+](C)(C)Cc1ccccc1)C1=C/C(=C/c2sc3ccccc3[n+]2C)c2ccccc2N1c1ccccc1.[Br-].[I-] [Compound 19] | negligible
CCCN(CCC[N+](C)(C)CCC)C1=C/C(=C/c2sc3ccccc3[n+]2C)c2ccccc2N1c1ccccc1.[I-].[I-] [Compound 4] | negligible
CCCN(CCC[N+](C)(C)CCC)C1=CC(=Cc2sc3ccccc3[n+]2C)c2ccc(OC)cc2N1c1ccccc1.[I-].[I-] [Compound 44] | negligible
CCCCN(CCC[N+](C)(C)CCO)C1=CC(=Cc2sc3ccccc3[n+]2C)c2ccc(OC)cc2N1c1ccccc1.[I-].[I-] [Compound 38] | negligible
CCN(CCCN(C)C)C1=C/C(=C/c2sc3ccccc3[n+]2C)c2ccccc2N1c1ccccc1.[I-] [Compound 15] | negligible
CCCCN(CCCN(C)C)C1=CC(=Cc2sc3ccccc3[n+]2C)c2ccc(OC)cc2N1c1ccccc1.[I-] [Compound 34] | negligible
C[n+]1ccn(C2=C/C(=C/c3sc4ccccc4[n+]3C)c3ccccc3N2c2ccccc2)c1.[I-].[I-] [Compound 62] | negligible
CCCN(CCC[N+](C)(C)Cc1cccc(OC)c1)C1=C/C(=C/c2sc3ccccc3[n+]2C)c2ccccc2N1c1ccccc1.[Br-].[Cl-] [Compound 7] | negligible
CCN(CCC[N+](C)(C)C)C1=C/C(=C/c2sc3ccccc3[n+]2C)c2ccccc2N1c1ccccc1.[I-].[I-] [Compound 16] | negligible
CCCN(CCC[N+](C)(C)CCO)C1=CC(=Cc2sc3ccccc3[n+]2C)c2ccc(OC)cc2N1c1ccccc1.[I-].[I-] [Compound 45] | negligible
CCN(CCN(C)C)C1=C/C(=C/c2sc3ccccc3[n+]2C)c2ccccc2N1c1ccccc1.[Cl-] [Compound 28] | negligible
COc1cccc(C[N+](C)(C)CCCN(C)C2=C/C(=C/c3sc4ccccc4[n+]3C)c3ccccc3N2c2ccccc2)c1.[Br-].[I-] [Compound 27] | negligible
CCN(CC[N+](C)(C)CC)C1=C/C(=C/c2sc3ccccc3[n+]2C)c2ccccc2N1c1ccccc1.[Cl-].[I-] [Compound 30] | negligible
C[n+]1c(/C=C2/C=C(n3ccnc3)N(c3ccccc3)c3ccccc32)sc2ccccc21.[I-] [Compound 61] | negligible
CCCN(CCCN(C)C)C1=CC(=Cc2sc3ccccc3[n+]2C)c2ccc(OC)cc2N1c1ccccc1.[I-] [Compound 41] | negligible
CCN(CC[N+](C)(C)Cc1ccccc1)C1=C/C(=C/c2sc3ccccc3[n+]2C)c2ccccc2N1c1ccccc1.[Br-].[I-] [Compound 32] | negligible
CCN(CC[N+](C)(C)C)C1=C/C(=C/c2sc3ccccc3[n+]2C)c2ccc(OC)cc2N1c1ccccc1.[I-].[I-] [Compound 56] | negligible
CCN(CCC[N+](C)(C)CCO)C1=C/C(=C/c2sc3ccccc3[n+]2C)c2ccc(OC)cc2N1c1ccccc1 [Compound 52] | negligible
CN(C)CCCC1=C/C(=C/c2sc3ccccc3[n+]2C)c2ccccc2N1c1ccccc1 [Compound 64] | negligible
C[n+]1c(/C=C2/C=C(CCC[N+](C)(C)C)N(c3ccccc3)c3ccccc32)sc2ccccc21 [Compound 65] | negligible
CCCCN(CCC[N+](C)(C)CC)C1=C/C(=C/c2sc3ccccc3[n+]2C)c2ccccc2N1c1ccccc1.[I-].[I-] [Compound 10] | negligible
